Values from PubChem BioAssay AID1224830 (NIAID, 2016)
Assay: 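Regulators of TLR4 signalling towards TNF-alpha in macrophage-like cells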 (primary screen). System: human THP-1 monocytic leukaemia cells, TNF dual-luciferase reporter clone, PMA-differentiated to macrophage-like cells. Reagent: siRNA pool against human genes, 50 nM. Duration: LPS for 4 h, given about 3 days after siRNA transfection. Conditions: bacterial LPS (TLR4 ligand), 10 ng/ml. Detection: 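Ratio of firefly to renilla light, scaled to the plate median and expressed as a robust z-score per replicate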. Reading the numbers: TNF reporter robust z-score: higher = stronger TNF reporter response to LPS. Call rule: 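a well is active when its z-score exceeds 2.8 or falls below -1.5; control wells carry no call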.
This is a random part of about 18,000 deposited reagents. Over the whole deposit, about 2,900 (16%) got an active call. 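Calls are made per well; low scores hint the gene aids the LPS response, high scores that it dampens it.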 Repeated entries: four replicate wells of each siRNA pool.

TRIM56 [SID315459954] | TNF reporter robust z-score: 4.37; outcome: active
TRIM56 [SID315459954] | TNF reporter robust z-score: 1.18; outcome: inactive
TRIM56 [SID315459954] | TNF reporter robust z-score: 2.18; outcome: inactive
TRIM56 [SID315459954] | TNF reporter robust z-score: 3.26; outcome: active
RYK [SID315451263] | TNF reporter robust z-score: -0.48; outcome: inactive
RYK [SID315451263] | TNF reporter robust z-score: -0.03; outcome: inactive
RYK [SID315451263] | TNF reporter robust z-score: -0.65; outcome: inactive
RYK [SID315451263] | TNF reporter robust z-score: 0.66; outcome: inactive

The listing continues:
FCRL2 [SID315459274] | TNF reporter robust z-score: 0.15; outcome: inactive
FCRL2 [SID315459274] | TNF reporter robust z-score: 0.23; outcome: inactive
FCRL2 [SID315459274] | TNF reporter robust z-score: -0.37; outcome: inactive
FCRL2 [SID315459274] | TNF reporter robust z-score: 1.36; outcome: inactive
SAC3D1 [SID315456204] | TNF reporter robust z-score: 2.74; outcome: inactive
SAC3D1 [SID315456204] | TNF reporter robust z-score: 4.6; outcome: active
SAC3D1 [SID315456204] | TNF reporter robust z-score: 2.33; outcome: inactive
SAC3D1 [SID315456204] | TNF reporter robust z-score: 3.36; outcome: active
EPS8L2 [SID315458997] | TNF reporter robust z-score: -1.07; outcome: inactive
EPS8L2 [SID315458997] | TNF reporter robust z-score: -1.17; outcome: inactive
EPS8L2 [SID315458997] | TNF reporter robust z-score: -0.8; outcome: inactive
EPS8L2 [SID315458997] | TNF reporter robust z-score: -0.71; outcome: inactive
